Earlier results on one molecule are cited in patent US20250375427A1 (Biohaven Therapeutics Ltd., priority 2022, published 2025).

For this data set the following is noted: cited from earlier work.

For the molecule `Nc1nc2ccc(OC(F)(F)F)cc2s1` [Riluzole, riluzole], where the note is “riluzole tablets”, the bioavailability entry is recorded as “approximately 60%”. In addition, the “food effect on absorption” value (taken with meals) is “reduced absorption when it is taken with meals”.
